Paper PMC3846882
No constants are given. Whether binding was seen depends on the method and setting. Binding seen in cells or lysates may run through a third protein. A yes stands for co-enrichment or nearness to the bait. Other partners may have been found. For some of these results: Tags and fused reporters may be left off the sequences shown.

The chains behind the UniProt entries cited, without tags or fusion partners.
UniProt Q15046: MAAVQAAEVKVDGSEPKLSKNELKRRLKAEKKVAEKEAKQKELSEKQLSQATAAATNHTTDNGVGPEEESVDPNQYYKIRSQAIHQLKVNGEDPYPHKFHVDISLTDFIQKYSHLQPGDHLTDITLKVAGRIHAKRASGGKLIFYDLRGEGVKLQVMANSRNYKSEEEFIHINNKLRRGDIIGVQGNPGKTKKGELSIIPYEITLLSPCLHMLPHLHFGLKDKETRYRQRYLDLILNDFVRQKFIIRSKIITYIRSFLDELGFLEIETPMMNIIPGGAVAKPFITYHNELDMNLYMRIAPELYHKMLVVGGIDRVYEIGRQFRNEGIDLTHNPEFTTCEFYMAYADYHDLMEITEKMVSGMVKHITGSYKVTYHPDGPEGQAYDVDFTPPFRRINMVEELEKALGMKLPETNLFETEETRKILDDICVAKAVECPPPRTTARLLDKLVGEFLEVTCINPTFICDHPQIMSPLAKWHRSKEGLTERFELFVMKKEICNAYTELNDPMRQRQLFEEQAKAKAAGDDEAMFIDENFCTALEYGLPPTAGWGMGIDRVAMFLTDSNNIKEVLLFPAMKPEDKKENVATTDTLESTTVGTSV

T1: S/FLAG/SBP tagged AIMP2 (UniProt Q13155)
T1 sequence: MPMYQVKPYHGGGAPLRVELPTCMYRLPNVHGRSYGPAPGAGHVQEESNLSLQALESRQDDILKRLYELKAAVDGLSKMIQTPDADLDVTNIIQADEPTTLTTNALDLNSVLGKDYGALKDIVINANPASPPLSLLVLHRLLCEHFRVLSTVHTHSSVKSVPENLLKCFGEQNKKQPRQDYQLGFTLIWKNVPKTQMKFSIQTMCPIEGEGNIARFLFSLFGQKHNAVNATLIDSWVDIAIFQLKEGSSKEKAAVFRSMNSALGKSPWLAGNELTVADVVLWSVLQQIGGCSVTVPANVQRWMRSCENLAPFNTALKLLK

T2: S/FLAG/SBP tagged AIMP1 (UniProt Q12904)
T2 sequence: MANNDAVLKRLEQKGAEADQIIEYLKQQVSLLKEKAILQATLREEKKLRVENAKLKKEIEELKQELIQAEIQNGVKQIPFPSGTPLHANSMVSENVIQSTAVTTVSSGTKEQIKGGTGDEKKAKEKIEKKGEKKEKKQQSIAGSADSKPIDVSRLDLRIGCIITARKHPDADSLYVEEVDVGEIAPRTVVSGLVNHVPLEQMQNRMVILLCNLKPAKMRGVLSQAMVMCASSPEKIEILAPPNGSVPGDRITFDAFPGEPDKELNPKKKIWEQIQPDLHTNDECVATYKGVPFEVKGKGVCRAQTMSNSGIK

B1: Eukaryotic translation elongation factor 1 epsilon-1 (protein, UniProt O43324 1-174)
chain: MAAAAELSLLEKSLGLSKGNKYSAQGERQIPVLQTNNGPSLTGLTTIAAHLVKQANKEYLLGSTAEEKAIVQQWLEYRVTQVDGHSSKNDIHTLLKDLNSYLEDKVYLTGYNFTLADILLYYGLHRFIVDLTVQEKEKYLNVSRWFCHIQHYPGIRQHLSSVVFIKNRLYTNSH
B2: Isoform 1 of Probable threonyl-tRNA synthetase 2 (enzyme, UniProt A2RTX5 1-802)
chain: MAAEALAAEAVASRLERQEEDIRWLWSEVERLRDEQLNAPYSCQAEGPCLTREVAQLRAENCDLRHRLCSLRLCLAEERSRQATLESAELEAAQEAGAQPPPSQSQDKDMKKKKMKESEADSEVKHQPIFIKERLKLFEILKKDHQLLLAIYGKKGDTSNIITVRVADGQTVQGEVWKTTPYQVAAEISQELAESTVIAKVNGELWDLDRPLEGDSSLELLTFDNEEAQAVYWHSSAHILGEAMELYYGGHLCYGPPIENGFYYDMFIEDRAVSSTELSALENICKAIIKEKQPFERLEVSKEILLEMFKYNKFKCRILNEKVNTATTTVYRCGPLIDLCKGPHVRHTGKIKTIKIFKNSSTYWEGNPEMETLQRIYGISFPDNKMMRDWEKFQEEAKNRDHRKIGKEQELFFFHDLSPGSCFFLPRGAFIYNTLTDFIREEYHKRDFTEVLSPNMYNSKLWEASGHWQHYSENMFTFEIEKDTFALKPMNCPGHCLMFAHRPRSWREMPIRFADFGVLHRNELSGTLSGLTRVRRFQQDDAHIFCTVEQIEEEIKGCLQFLQSVYSTFGFSFQLNLSTRPENFLGEIEMWNEAEKQLQNSLMDFGEPWKMNPGDGAFYGPKIDIKIKDAIGRYHQCATIQLDFQLPIRFNLTYVSKDGDDKKRPVIIHRAILGSVERMIAILSENYGGKWPFWLSPRQVMVIPVGPTCEKYALQVSSEFFEEGFMADVDLDHSCTLNKKIRNAQLAQYNFILVVGEKEKIDNAVNVRTRDNKIHGEILVTSAIDKLKNLRKTRTLNAEEAF
B3: Isoleucyl-tRNA synthetase (enzyme, UniProt P41252 1-1262)
chain: MLQQVPENINFPAEEEKILEFWTEFNCFQECLKQSKHKPKFTFYDGPPFATGLPHYGHILAGTIKDIVTRYAHQSGFHVDRRFGWDCHGLPVEYEIDKTLGIRGPEDVAKMGITEYNNQCRAIVMRYSAEWKSTVSRLGRWIDFDNDYKTLYPQFMESVWWVFKQLYDKGLVYRGVKVMPFSTACNTPLSNFESHQNYKDVQDPSVFVTFPLEEDETVSLVAWTTTPWTLPSNLAVCVNPEMQYVKIKDVARGRLLILMEARLSALYKLESDYEILERFPGAYLKGKKYRPLFDYFLKCKENGAFTVLVDNYVKEEEGTGVVHQAPYFGAEDYRVCMDFNIIRKDSLPVCPVDASGCFTTEVTDFAGQYVKDADKSIIRTLKEQGRLLVATTFTHSYPFCWRSDTPLIYKAVPSWFVRVENMVDQLLRNNDLCYWVPELVREKRFGNWLKDARDWTISRNRYWGTPIPLWVSDDFEEVVCIGSVAELEELSGAKISDLHRESVDHLTIPSRCGKGSLHRISEVFDCWFESGSMPYAQVHYPFENKREFEDAFPADFIAEGIDQTRGWFYTLLVLATALFGQPPFKNVIVNGLVLASDGQKMSKRKKNYPDPVSIIQKYGADALRLYLINSPVVRAENLRFKEEGVRDVLKDVLLPWYNAYRFLIQNVLRLQKEEEIEFLYNENTVRESPNITDRWILSFMQSLIGFFETEMAAYRLYTVVPRLVKFVDILTNWYVRMNRRRLKGENGMEDCVMALETLFSVLLSLCRLMAPYTPFLTELMYQNLKVLIDPVSVQDKDTLSIHYLMLPRVREELIDKKTESAVSQMQSVIELGRVIRDRKTIPIKYPLKEIVVIHQDPEALKDIKSLEKYIIEELNVRKVTLSTDKNKYGIRLRAEPDHMVLGKRLKGAFKAVMTSIKQLSSEELEQFQKTGTIVVEGHELHDEDIRLMYTFDQATGGTAQFEAHSDAQALVLLDVTPDQSMVDEGMAREVINRIQKLRKKCNLVPTDEITVYYKAKSEGTYLNSVIESHTEFIFTTIKAPLKPYPVSPSDKVLIQEKTQLKGSELEITLTRGSSLPGPACAYVNLNICANGSEQGGVLLLENPKGDNRLDLLKLKSVVTSIFGVKNTELAVFHDETEIQNQTDLLSLSGKTLCVTAGSAPSLINSSSTLLCQYINLQLLNAKPQECLMGTVGTLLLENPLGQNGLTHQGLLYEAAKVFGLRSRKLKLFLNETQTQEITEDIPVKTLNMKTVYVSVLPTTADF
B4: ER membrane lipid raft-associated 2 (protein, UniProt O94905 1-339)
chain: MAQLGAVVAVASSFFCASLFSAVHKIEEGHIGVYYRGGALLTSTSGPGFHLMLPFITSYKSVQTTLQTDEVKNVPCGTSGGVMIYFDRIEVVNFLVPNAVYDIVKNYTADYDKALIFNKIHHELNQFCSVHTLQEVYIELFDQIDENLKLALQQDLTSMAPGLVIQAVRVTKPNIPEAIRRNYELMESEKTKLLIAAQKQKVVEKEAETERKKALIEAEKVAQVAEITYGQKVMEKETEKKISEIEDAAFLAREKAKADAECYTAMKIAEANKLKLTPEYLQLMKYKAIASNSKIYFGKDIPNMFMDSAGSVSKQFEGLADKLSFGLEDEPLETATKEN
B5: Methionyl-tRNA synthetase (enzyme, UniProt P56192 1-900)
chain: MRLFVSDGVPGCLPVLAAAGRARGRAEVLISTVGPEDCVVPFLTRPKVPVLQLDSGNYLFSTSAICRYFFLLSGWEQDDLTNQWLEWEATELQPALSAALYYLVVQGKKGEDVLGSVRRALTHIDHSLSRQNCPFLAGETESLADIVLWGALYPLLQDPAYLPEELSALHSWFQTLSTQEPCQRAAETVLKQQGVLALRPYLQKQPQPSPAEGRAVTNEPEEEELATLSEEEIAMAVTAWEKGLESLPPLRPQQNPVLPVAGERNVLITSALPYVNNVPHLGNIIGCVLSADVFARYSRLRQWNTLYLCGTDEYGTATETKALEEGLTPQEICDKYHIIHADIYRWFNISFDIFGRTTTPQQTKITQDIFQQLLKRGFVLQDTVEQLRCEHCARFLADRFVEGVCPFCGYEEARGDQCDKCGKLINAVELKKPQCKVCRSCPVVQSSQHLFLDLPKLEKRLEEWLGRTLPGSDWTPNAQFITRSWLRDGLKPRCITRDLKWGTPVPLEGFEDKVFYVWFDATIGYLSITANYTDQWERWWKNPEQVDLYQFMAKDNVPFHSLVFPCSALGAEDNYTLVSHLIATEYLNYEDGKFSKSRGVGVFGDMAQDTGIPADIWRFYLLYIRPEGQDSAFSWTDLLLKNNSELLNNLGNFINRAGMFVSKFFGGYVPEMVLTPDDQRLLAHVTLELQHYHQLLEKVRIRDALRSILTISRHGNQYIQVNEPWKRIKGSEADRQRAGTVTGLAVNIAALLSVMLQPYMPTVSATIQAQLQLPPPACSILLTNFLCTLPAGHQIGTVSPLFQKLENDQIESLRQRFGGGQAKTSPKPAVVETVTTAKPQQIQALMDEVTKQGNIVRELKAQKADKNEVAAEVAKLLDLKKQLAVAEGKPPEAPKGKKKK
B6: AIMP1 isoform 2 (protein, UniProt Q12904-2 1-336)
chain: MLPAVAVSEPVVLRFMIFCRLLAKMANNDAVLKRLEQKGAEADQIIEYLKQQVSLLKEKAILQATLREEKKLRVENAKLKKEIEELKQELIQAEIQNGVKQIPFPSGTPLHANSMVSENVIQSTAVTTVSSGTKEQIKGGTGDEKKAKEKIEKKGEKKEKKQQSIAGSADSKPIDVSRLDLRIGCIITARKHPDADSLYVEEVDVGEIAPRTVVSGLVNHVPLEQMQNRMVILLCNLKPAKMRGVLSQAMVMCASSPEKIEILAPPNGSVPGDRITFDAFPGEPDKELNPKKKIWEQIQPDLHTNDECVATYKGVPFEVKGKGVCRAQTMSNSGIK
B7: TNF receptor-associated factor 4 (protein, UniProt Q9BUZ4 1-470)
chain: MPGFDYKFLEKPKRRLLCPLCGKPMREPVQVSTCGHRFCDTCLQEFLSEGVFKCPEDQLPLDYAKIYPDPELEVQVLGLPIRCIHSEEGCRWSGPLRHLQGHLNTCSFNVIPCPNRCPMKLSRRDLPAHLQHDCPKRRLKCEFCGCDFSGEAYESHEGMCPQESVYCENKCGARMMRRLLAQHATSECPKRTQPCTYCTKEFVFDTIQSHQYQCPRLPVACPNQCGVGTVAREDLPGHLKDSCNTALVLCPFKDSGCKHRCPKLAMARHVEESVKPHLAMMCALVSRQRQELQELRRELEELSVGSDGVLIWKIGSYGRRLQEAKAKPNLECFSPAFYTHKYGYKLQVSAFLNGNGSGEGTHLSLYIRVLPGAFDNLLEWPFARRVTFSLLDQSDPGLAKPQHVTETFHPDPNWKNFQKPGTWRGSLDESSLGFGYPKFISHQDIRKRNYVRDDAVFIRAAVELPRKILS

Experiments:
Test in all cases: affinity purification with mass spectrometry; S/FLAG/SBP-tagged bait transiently expressed in HEK 293T and HCT-8 cells; 2 mg lysate protein in NETN buffer (20 mM Tris-HCl pH 7.4, 1 mM EDTA, 150 mM NaCl, 0.5% Nonidet P-40) on streptavidin agarose, 2 h, 4 °C; eluted with biotin; in-gel digestion, LC-MS/MS; SAINT probability 0.9 or above against a mock vector with the tag only; three biological replicates
S/FLAG/SBP tagged AIMP2 = target: T1, S/FLAG/SBP tagged AIMP2
S/FLAG/SBP tagged KARS = S/FLAG/SBP tagged KARS (UniProt Q15046)
S/FLAG/SBP tagged AIMP1 = target: T2, S/FLAG/SBP tagged AIMP1

| binding (S/FLAG/SBP tagged AIMP2) | binding (S/FLAG/SBP tagged KARS) | binding (S/FLAG/SBP tagged AIMP1) | Binder |
| --- | --- | --- | --- |
| binds | binds | binds | B1 |
| binds | – | binds | B2 |
| binds | binds | binds | B3 |
| binds | – | – | B4 |
| – | binds | binds | B5 |
| – | binds | – | B6 |
| – | binds | – | B7 |
